From the supplement of paper PMC12067093, “Discovery and optimisation of a covalent ligand for TRIM25 and its application to targeted protein ubiquitination” (Chemical Science, 2025)
The list shows a part of the results.

Amino acid sequences for entries named in this document (tags omitted). A change or cut given only in a name is not applied to a line headed by its entry.
UniProt Q4G0J3: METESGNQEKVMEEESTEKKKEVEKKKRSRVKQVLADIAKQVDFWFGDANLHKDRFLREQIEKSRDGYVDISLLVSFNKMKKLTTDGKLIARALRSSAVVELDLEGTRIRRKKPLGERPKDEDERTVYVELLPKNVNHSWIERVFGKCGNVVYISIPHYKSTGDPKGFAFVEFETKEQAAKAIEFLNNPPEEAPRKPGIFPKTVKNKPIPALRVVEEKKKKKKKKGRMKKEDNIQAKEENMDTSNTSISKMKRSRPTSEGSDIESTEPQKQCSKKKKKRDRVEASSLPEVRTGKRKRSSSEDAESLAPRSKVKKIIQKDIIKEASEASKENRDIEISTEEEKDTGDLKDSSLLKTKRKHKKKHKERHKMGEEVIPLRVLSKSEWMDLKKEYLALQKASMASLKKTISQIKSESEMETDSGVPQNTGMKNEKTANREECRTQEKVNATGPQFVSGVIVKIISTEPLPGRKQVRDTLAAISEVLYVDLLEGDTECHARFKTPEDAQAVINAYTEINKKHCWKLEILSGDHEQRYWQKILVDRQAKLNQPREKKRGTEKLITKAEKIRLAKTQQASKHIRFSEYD
UniProt Q96JN0: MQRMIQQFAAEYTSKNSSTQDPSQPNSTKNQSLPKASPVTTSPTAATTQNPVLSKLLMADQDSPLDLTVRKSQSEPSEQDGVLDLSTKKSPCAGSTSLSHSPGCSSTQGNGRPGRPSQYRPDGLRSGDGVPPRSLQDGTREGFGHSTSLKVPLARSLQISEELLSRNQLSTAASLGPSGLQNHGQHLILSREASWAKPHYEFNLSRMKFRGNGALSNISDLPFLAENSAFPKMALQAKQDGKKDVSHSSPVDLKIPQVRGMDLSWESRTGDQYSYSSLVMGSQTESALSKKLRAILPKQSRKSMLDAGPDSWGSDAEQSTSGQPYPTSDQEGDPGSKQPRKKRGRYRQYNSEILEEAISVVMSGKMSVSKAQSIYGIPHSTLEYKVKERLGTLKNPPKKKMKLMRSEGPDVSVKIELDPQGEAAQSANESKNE
UniProt Q8NC56: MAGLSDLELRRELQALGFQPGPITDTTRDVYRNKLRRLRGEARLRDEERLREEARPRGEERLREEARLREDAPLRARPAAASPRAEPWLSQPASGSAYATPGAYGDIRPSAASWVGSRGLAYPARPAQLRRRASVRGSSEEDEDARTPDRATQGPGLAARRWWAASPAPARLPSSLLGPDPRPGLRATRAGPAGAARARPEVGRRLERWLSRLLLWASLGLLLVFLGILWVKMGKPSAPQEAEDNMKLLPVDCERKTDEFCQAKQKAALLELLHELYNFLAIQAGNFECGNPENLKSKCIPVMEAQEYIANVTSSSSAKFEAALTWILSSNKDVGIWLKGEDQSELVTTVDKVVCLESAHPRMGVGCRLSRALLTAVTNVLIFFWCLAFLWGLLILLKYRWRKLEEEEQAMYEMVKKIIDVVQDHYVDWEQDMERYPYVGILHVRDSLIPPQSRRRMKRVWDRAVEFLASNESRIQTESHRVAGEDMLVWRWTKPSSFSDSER
UniProt Q1ED39: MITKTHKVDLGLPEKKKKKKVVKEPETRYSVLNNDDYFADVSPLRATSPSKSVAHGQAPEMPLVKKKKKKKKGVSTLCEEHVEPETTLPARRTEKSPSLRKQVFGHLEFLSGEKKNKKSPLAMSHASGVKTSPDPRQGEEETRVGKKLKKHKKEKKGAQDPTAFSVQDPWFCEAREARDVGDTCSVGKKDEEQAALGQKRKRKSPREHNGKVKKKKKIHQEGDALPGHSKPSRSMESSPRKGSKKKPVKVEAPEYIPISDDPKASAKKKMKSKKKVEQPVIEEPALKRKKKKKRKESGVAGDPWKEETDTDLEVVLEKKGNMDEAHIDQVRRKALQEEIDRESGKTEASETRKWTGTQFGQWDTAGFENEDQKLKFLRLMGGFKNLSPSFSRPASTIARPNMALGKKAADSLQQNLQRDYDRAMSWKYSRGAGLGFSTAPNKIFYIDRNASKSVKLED
UniProt Q8IXQ5, whole entry, looked up: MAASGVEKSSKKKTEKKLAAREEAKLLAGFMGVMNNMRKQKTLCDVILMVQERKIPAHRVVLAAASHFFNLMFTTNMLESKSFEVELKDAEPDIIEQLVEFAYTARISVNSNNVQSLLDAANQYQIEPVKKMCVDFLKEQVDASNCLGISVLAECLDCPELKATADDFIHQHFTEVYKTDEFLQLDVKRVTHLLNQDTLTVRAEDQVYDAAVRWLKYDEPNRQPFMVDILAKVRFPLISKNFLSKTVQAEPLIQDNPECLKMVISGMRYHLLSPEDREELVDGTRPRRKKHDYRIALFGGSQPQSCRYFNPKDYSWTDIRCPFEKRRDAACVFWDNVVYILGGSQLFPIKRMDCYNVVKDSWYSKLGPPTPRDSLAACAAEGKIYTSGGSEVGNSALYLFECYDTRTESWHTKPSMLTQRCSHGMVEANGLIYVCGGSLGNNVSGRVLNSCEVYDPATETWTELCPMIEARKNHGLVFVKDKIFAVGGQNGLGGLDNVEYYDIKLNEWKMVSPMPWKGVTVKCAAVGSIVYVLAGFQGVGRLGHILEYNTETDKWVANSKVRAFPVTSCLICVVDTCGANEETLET
UniProt Q969R5, whole entry, looked up: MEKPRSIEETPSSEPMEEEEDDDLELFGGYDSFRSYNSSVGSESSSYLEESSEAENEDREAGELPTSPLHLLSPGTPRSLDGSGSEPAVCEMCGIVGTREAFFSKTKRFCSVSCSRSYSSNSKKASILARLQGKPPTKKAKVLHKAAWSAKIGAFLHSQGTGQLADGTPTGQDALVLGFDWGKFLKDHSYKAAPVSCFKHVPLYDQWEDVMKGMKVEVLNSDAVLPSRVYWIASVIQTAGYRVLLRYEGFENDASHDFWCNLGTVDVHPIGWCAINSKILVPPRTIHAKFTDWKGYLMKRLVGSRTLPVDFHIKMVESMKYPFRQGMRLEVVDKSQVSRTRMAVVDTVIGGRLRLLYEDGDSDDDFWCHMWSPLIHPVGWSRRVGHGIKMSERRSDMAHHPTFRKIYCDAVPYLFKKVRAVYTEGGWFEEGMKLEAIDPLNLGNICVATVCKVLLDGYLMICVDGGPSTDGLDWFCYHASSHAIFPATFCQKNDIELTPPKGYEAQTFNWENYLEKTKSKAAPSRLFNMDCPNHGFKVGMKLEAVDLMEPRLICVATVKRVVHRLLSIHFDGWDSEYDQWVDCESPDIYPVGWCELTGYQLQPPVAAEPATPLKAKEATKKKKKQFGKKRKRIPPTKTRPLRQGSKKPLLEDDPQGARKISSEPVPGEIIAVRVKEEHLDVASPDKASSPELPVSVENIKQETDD
UniProt Q9P2J5: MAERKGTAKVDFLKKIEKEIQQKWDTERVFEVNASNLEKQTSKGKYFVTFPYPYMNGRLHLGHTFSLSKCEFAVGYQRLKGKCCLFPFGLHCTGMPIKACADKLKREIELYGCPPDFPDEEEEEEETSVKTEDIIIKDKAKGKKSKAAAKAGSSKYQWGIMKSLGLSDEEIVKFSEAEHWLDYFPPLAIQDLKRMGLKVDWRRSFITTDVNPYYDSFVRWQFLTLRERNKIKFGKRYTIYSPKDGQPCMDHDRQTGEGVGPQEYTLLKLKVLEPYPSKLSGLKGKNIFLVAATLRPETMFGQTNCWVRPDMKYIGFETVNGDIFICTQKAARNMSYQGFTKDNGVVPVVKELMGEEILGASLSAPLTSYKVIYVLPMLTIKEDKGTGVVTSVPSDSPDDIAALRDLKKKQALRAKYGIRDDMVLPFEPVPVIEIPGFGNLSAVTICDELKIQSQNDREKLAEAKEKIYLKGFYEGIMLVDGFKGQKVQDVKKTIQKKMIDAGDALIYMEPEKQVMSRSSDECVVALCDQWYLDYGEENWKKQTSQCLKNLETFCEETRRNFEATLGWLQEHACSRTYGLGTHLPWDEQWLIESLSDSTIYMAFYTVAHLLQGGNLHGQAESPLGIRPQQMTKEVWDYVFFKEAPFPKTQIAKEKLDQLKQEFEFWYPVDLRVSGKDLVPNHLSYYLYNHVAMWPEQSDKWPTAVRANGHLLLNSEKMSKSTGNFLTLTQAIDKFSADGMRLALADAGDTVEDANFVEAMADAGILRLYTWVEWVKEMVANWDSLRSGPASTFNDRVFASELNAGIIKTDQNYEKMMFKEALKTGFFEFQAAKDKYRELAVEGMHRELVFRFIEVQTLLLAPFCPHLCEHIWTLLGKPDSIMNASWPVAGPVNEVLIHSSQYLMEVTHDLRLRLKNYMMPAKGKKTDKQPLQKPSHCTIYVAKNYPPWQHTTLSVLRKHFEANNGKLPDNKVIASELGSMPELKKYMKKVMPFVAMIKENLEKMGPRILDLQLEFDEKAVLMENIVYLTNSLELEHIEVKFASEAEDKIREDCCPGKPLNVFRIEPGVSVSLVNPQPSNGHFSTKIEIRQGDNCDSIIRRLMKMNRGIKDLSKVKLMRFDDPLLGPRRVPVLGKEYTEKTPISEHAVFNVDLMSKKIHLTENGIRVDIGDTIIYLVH
UniProt P01130: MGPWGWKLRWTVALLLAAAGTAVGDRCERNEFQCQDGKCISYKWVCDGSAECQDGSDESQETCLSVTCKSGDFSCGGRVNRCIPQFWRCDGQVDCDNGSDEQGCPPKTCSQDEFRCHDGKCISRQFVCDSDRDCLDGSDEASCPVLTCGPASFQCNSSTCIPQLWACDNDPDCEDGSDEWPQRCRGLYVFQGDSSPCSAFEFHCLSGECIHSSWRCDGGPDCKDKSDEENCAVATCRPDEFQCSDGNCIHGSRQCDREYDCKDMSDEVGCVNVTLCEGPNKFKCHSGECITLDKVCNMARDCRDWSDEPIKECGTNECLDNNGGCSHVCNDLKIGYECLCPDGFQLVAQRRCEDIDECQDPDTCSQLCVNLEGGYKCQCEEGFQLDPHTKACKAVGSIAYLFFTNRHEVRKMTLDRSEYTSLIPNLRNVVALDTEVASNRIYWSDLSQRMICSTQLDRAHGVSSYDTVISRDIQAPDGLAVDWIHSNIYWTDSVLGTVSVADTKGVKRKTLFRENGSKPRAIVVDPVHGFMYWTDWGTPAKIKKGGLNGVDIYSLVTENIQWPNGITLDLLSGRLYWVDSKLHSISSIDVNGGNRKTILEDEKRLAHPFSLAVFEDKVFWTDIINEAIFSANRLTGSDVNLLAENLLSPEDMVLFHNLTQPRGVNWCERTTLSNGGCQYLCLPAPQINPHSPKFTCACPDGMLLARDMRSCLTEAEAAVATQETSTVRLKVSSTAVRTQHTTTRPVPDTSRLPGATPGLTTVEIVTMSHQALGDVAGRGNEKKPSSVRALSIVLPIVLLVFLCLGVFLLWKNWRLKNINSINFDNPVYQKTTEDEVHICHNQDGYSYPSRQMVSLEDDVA
UniProt Q14847: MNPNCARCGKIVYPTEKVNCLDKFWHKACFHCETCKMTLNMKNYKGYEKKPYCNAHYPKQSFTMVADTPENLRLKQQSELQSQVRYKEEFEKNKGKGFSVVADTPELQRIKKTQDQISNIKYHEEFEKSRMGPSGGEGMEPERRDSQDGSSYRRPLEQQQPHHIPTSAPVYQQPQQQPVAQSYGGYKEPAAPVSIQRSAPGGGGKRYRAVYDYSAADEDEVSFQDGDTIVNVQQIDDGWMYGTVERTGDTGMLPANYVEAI
UniProt O43813, whole entry, looked up: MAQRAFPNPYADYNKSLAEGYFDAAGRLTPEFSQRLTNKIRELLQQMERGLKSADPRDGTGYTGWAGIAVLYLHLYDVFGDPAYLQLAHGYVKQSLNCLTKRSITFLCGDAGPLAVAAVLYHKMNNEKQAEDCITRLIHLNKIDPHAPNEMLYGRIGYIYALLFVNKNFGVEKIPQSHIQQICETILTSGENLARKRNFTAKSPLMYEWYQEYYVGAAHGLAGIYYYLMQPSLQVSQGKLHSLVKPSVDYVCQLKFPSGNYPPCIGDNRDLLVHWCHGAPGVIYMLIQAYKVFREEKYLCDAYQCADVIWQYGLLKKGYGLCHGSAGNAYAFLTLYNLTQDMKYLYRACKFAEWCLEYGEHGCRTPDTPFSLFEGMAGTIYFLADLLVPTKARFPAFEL
UniProt Q14657: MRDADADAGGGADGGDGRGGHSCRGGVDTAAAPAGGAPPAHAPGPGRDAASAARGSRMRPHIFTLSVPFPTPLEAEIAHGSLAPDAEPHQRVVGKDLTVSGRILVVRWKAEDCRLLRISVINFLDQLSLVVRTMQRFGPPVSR
UniProt P07195, whole entry, looked up: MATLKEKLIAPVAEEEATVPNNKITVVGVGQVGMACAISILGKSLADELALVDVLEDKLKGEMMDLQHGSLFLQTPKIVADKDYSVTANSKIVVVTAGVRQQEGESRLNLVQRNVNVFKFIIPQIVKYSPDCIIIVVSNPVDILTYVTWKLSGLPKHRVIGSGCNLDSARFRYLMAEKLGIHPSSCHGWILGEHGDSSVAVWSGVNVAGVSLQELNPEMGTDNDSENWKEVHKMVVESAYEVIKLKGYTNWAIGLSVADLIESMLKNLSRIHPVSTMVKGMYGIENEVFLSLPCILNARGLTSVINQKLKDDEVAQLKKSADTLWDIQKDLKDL

Compound: Cc1cc(ccc1-c1ccccc1)C(=O)N1CCCN(CC1)C(=O)CCl [compound 10]
Experiment: probe-labelled cysteine peptide fold change vs DMSO (competition) (log2 fold change); higher = less target engagement (more negative = stronger competition)
Details: THP-1, incubation time: 4 h
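Also: competitive profiling in live THP-1 cells: cysteine peptides tagged with an iodoacetamide desthiobiotin (IA-DTB) probe, intensity after compound treatment relative to DMSO-treated cells.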

Row | Target | probe-labelled cysteine peptide fold change (10 µM) | probe-labelled cysteine peptide fold change (50 µM)
1 | LARP7_Q4G0J3_493_DTLAAISEVLYVDLLEGDTECHAR (UniProt Q4G0J3) | 0.181 | 0.099
2 | KRR1_Q13601_102_ALNEHHVNATLDLIEGSMTVCTTK (UniProt Q13601) | 0.0847 | 0.243
3 | LAS1L_Q9Y4W2_316_GVTCENR (UniProt Q9Y4W2) | -0.128 | 0.228
4 | LCMT1_Q9UIC8_136_CKPPLSSPILELHSEDTLQMDGHILDSK (UniProt Q9UIC8) | -0.0708 | -0.113
5 | LCOR_Q96JN0-3_1334_MECPDALAVESKPSR (UniProt Q96JN0) | -0.165 | -0.442
6 | LAMC1_P11047_804_RCELCDDGYFGDPLGR (UniProt P11047) | 0.383 | 0.59
7 | LEMD2_Q8NC56_261_KTDEFCQAK (UniProt Q8NC56) | -0.103 | 0.03
8 | KTI12_Q96EK9_7_PLVVFCGLPYSGK (UniProt Q96EK9) | -0.0395 | -0.109
9 | KNOP1_Q1ED39_184_DVGDTCSVGK (UniProt Q1ED39) | -0.381 | -0.292
10 | LCP1_P13796_42_AACLPLPGYR (UniProt P13796) | -0.387 | 0.00707
11 | KIF5B_P33176_302_TTIVICCSPSSYNESETK (UniProt P33176) | -0.0386 | -0.0213
12 | LEMD2_Q8NC56_253_LLPVDCER (UniProt Q8NC56) | -0.171 | 0.185
13 | KLHL7_Q8IXQ5_378_DSLAACAAEGK (UniProt Q8IXQ5) | -0.156 | -0.0752
14 | LARP7_Q4G0J3_148_CGNVVYISIPHYK (UniProt Q4G0J3) | 0.0026 | 0.0456
15 | LCOR_Q96JN0-3_1334_MECPDALAVESK (UniProt Q96JN0) | 0.0815 | -0.0619
16 | KIZ_Q2M2Z5_293_CDSSSGSEGEILTR (UniProt Q2M2Z5) | 0.0062 | 0.319
17 | L3MBTL2_Q969R5_197_AAPVSCFK (UniProt Q969R5) | -0.094 | -0.0347

Row | Target | probe-labelled cysteine peptide fold change (10 µM) | probe-labelled cysteine peptide fold change (50 µM)
18 | KMT2C_Q8NEZ4_417_GYHTFCLQPVMK (UniProt Q8NEZ4) | 0.0697 | -0.0801
19 | LARS_Q9P2J5_554_NLETFCEETRR (UniProt Q9P2J5) | -0.0731 | -0.201
20 | LDLR_P01130_377_CQCEEGFQLDPHTK (UniProt P01130) | 0.141 | 0.118
21 | LASP1_Q14847_29+32_ACFHCETCK (UniProt Q14847) | 0.00859 | -0.283
22 | LENG8_Q96PV6_584_SLCMVK (UniProt Q96PV6) | -0.193 | -1.09
23 | LANCL1_O43813_252_LHSLVKPSVDYVCQLK (UniProt O43813) | 0.171 | -0.123
24 | LARS_Q9P2J5_936_QPLQKPSHCTIYVAK (UniProt Q9P2J5) | -0.0296 | -0.926
25 | LDHD_Q86WU2_274_LHPAPEATVAATCAFPSVQAAVDSTVHILQAAVPVAR (UniProt Q86WU2) | 0.28 | 0.729
26 | LARP1_Q6PKG0_502_RREEPEKWPLPPIVDYSQTDFSQLLNCPEFVPR (UniProt Q6PKG0) | -0.0687 | -0.445
27 | LDHD_Q86WU2_392_GYSTDVCVPISR (UniProt Q86WU2) | -0.0614 | -0.00939
28 | LANCL1_O43813_183_IPQSHIQQICETILTSGENLAR (UniProt O43813) | 0.14 | 0.284
29 | LARS_Q9P2J5_83+84_CCLFPFGLHCTGMPIK (UniProt Q9P2J5) | -0.0152 | -0.325
30 | KLHL30_Q0D2K2_231_AAHLPELLSLVHLDAVPRPCVQQLLASEPLIQESEACR (UniProt Q0D2K2) | -0.108 | -0.628
31 | KPNB1_Q14974_392_YRDAAVMAFGCILEGPEPSQLK (UniProt Q14974) | -0.0348 | 0.00782
32 | KLHL26_Q53HC5_480_ALHCYDPVADQWEFK (UniProt Q53HC5) | -0.144 | -0.21
33 | LAGE3_Q14657_113_WKAEDCR (UniProt Q14657) | -0.182 | 0.0737
34 | LDHB_P07195_36_ITVVGVGQVGMACAISILGK (UniProt P07195) | 0.0756 | -0.0044
